# In PubChem BioAssay AID1487 (National Center for Advancing Translational Sciences (NCATS), 2009):
# Some of the results follow. The main result of the screen is listed elsewhere. These columns were measured beside it and carry no call. The list favours compounds with an active or inconclusive main result. The note in brackets gives the kind of curve behind each potency; many fits are weak.
# Experiment: qHTS Assay for Modulators of Lamin A Splicing
# Conditions: HeLa LMNA splicing GFP/RFP minigene ratio, 48 h
# Procedure, shortened: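 S3 HeLa stable clones carrying a lamin A-EGFP splicing minigene plus DsRed2 were seeded at 600 cells/well in Opti-MEM with 2% FBS, pin-dosed and incubated 48 h at 37°C. Acumen cytometry (488 nm) gave the GFP/RFP total-intensity ratio.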
# [1] = measured here: RFP viability control channel
# [2] = measured here: GFP splicing reporter channel
structure (smiles),measurement,setting,value
O=C(/C=C\c1ccco1)Nc1nc(-c2ccccc2)cs1,AC50,[1],"20 µM [rising, single point]"
COC(=O)c1c(NC(=O)c2ccc(Br)o2)sc(C)c1C,AC50,[2],"6.31 µM [rising, single point]"
O=C(C(Sc1ccccc1)c1ccccc1)N1CCN(c2ccccc2)CC1 (stereo unspecified),AC50,[1],"12.6 µM [rising, partial curve]"
C=CCn1cnc2scc(-c3ccc(C)c(C)c3)c2c1=O,AC50,[2],"7.08 µM [falling, partial curve]"
same,AC50,[1],"7.08 µM [falling, full curve, poor fit]"
Cc1ccc(SCC(=O)Nc2ccccc2C(=O)N2CCOCC2)cc1,AC50,[2],"0.282 µM [falling, full curve, poor fit]"
O=[N+]([O-])c1ccc(O)c2cccnc12,AC50,[1],"0.631 µM [falling, partial curve]"
Cc1oc2c(c1C(=O)c1ccc(Cl)cc1)C(=O)C(=O)c1ccccc1-2,AC50,[2],"5.62 µM [falling, full curve]"
same,AC50,[1],"4.47 µM [falling, full curve]"
Clc1cccc(-c2cc3nc4c(c(NCc5ccco5)n3n2)CCCC4)c1,AC50,[2],"20 µM [rising, partial curve, poor fit]"
same,AC50,[1],"31.6 µM [rising, single point]"
Cc1c(Cl)cccc1NC(=O)N1CCN(Cc2cc(=O)n3nc(-c4ccccc4F)sc3n2)CC1,AC50,[2],"0.794 µM [rising, single point]"
Cc1nn(C)c2c1c(-c1ccccc1)cc(=O)n2Cc1ccccc1F,AC50,[1],"31.6 µM [rising, single point]"
COc1ccc(/C=C/C(O)=C2/C(=O)N(C)C3(C)CC2c2ccccc2O3)cc1 (stereo unspecified),AC50,[2],"35.5 µM [falling, single point]"
same,AC50,[1],"15.8 µM [rising, single point]"
COc1ccc(NC(=O)c2cc(-c3ccccc3)nc3c2c(C)nn3-c2ccccc2)c(OC)c1,AC50,[2],"6.31 µM [rising, partial curve, poor fit]"
CCOc1cc(-c2nc(-c3ccccc3)c(-c3cc([N+](=O)[O-])ccc3C)[nH]2)ccc1O,AC50,[2],"20 µM [rising, partial curve, poor fit]"
same,AC50,[1],"35.5 µM [rising, single point]"
COc1ccccc1C(=O)NCCn1cc(SCC(=O)NCc2ccco2)c2ccccc21,AC50,[1],"35.5 µM [rising, single point]"
O=C(Cn1cnc2c(nnn2Cc2ccc(F)cc2)c1=O)NCc1ccc(F)cc1,AC50,[1],"7.94 µM [rising, partial curve]"
Cc1cccc(CN2CCc3c(OCC(=O)N4CCCc5ccccc54)cccc3C2=O)c1,AC50,[1],"35.5 µM [rising, single point]"
CCNC(=S)N/N=C/c1cn(Cc2ccc(F)cc2)c2ccccc12,AC50,[1],"35.5 µM [rising, single point]"
Cc1nnc(SCC(=O)Nc2ccc3c(c2)OCO3)n(N)c1=O,AC50,[2],"0.00316 µM [rising, full curve, poor fit]"
CCn1c(C(=O)NCCCc2ccccc2)cc2sccc21,AC50,[2],"14.1 µM [rising, single point]"
same,AC50,[1],"15.8 µM [rising, single point]"
Cc1ccccc1CNC(=O)C(=O)NCC(c1ccco1)S(=O)(=O)c1ccc(F)cc1 (stereo unspecified),AC50,[2],"25.1 µM [falling, single point]"
Cc1nc(C#N)c(N/N=C/c2cccc(Cl)c2)o1,AC50,[1],"35.5 µM [rising, single point]"
CC(C)OC(=O)CSc1n[nH]c(-c2cccnc2)n1,AC50,[1],"3.55 µM [rising, single point]"
S=c1[nH]nc(-c2ccco2)n1/N=C/c1ccc(Cl)cc1,AC50,[1],"3.16 µM [rising, partial curve, poor fit]"
COC(=O)c1ccc(Cn2c(=O)cc(C)c3c(C)nn(C)c32)cc1,AC50,[1],"0.158 µM [falling, partial curve]"
CC(C)c1ccc(C(=O)N2CCCN(C(=O)c3ccc(C(C)C)cc3)CC2)cc1,AC50,[1],"25.1 µM [rising, single point]"
O=C(N/N=C/c1coc2ccccc2c1=O)c1ccccc1,AC50,[1],"0.0178 µM [rising, full curve, poor fit]"
N#C/C(=C/c1ccc(N2CCCCC2)cc1)c1cccc(F)c1,AC50,[1],"11.2 µM [rising, partial curve]"
CCOC(=O)c1c(NC(=O)C(C)S(=O)(=O)c2cn(CC)c3ccccc23)sc2c1CCCC2 (stereo unspecified),AC50,[2],"25.1 µM [rising, single point]"
O=C(/C=C/c1ccc([N+](=O)[O-])cc1)NNC(=O)C1CC1,AC50,[1],"0.00355 µM [falling, full curve, poor fit]"
O=c1[nH]c(=O)c2nc(-c3ccc(Cl)cc3)cnc2[nH]1,AC50,[2],"0.1 µM [rising, full curve, poor fit]"
CN(C)c1ccc(C(CNC(=O)COc2ccccc2)N2CCOCC2)cc1 (stereo unspecified),AC50,[2],"7.94 µM [falling, partial curve, poor fit]"
COc1ccccc1C(=O)NCC(=O)N/N=C/c1cc(Br)ccc1OC(=O)/C=C\c1ccco1,AC50,[2],"14.1 µM [rising, partial curve, poor fit]"
same,AC50,[1],"12.6 µM [rising, partial curve]"
CSc1ccccc1NC(=O)C1C2CCC(C2)C1C(=O)O (stereo unspecified),AC50,[1],"0.251 µM [falling, full curve, poor fit]"
Cc1ccc(S(=O)(=O)NCc2ccco2)c(C)c1C,AC50,[1],"12.6 µM [rising, partial curve, poor fit]"
CCOc1ccc(Oc2nc(N(CC)CC)nc(N3CCOCC3)n2)nn1,AC50,[2],"20 µM [falling, single point]"
O=C(c1ccc2c(c1)OCO2)C1CCCN(C(=O)c2cnn(Cc3ccccc3)c2)C1 (stereo unspecified),AC50,[1],"0.891 µM [falling, partial curve]"
CCCCCCCCCCCCCCCCCCO,AC50,[2],"35.5 µM [falling, single point]"
same,AC50,[1],"0.00251 µM [falling, full curve, poor fit]"
O=C(NC(=S)Nc1ccc(CN2CCOCC2)cc1)c1cccc([N+](=O)[O-])c1,AC50,[2],"4.47 µM [falling, full curve, poor fit]"

# Two records drawn at random from those above, as already listed:
structure (smiles),measurement,setting,value
CCNC(=S)N/N=C/c1cn(Cc2ccc(F)cc2)c2ccccc12,AC50,[1],"35.5 µM [rising, single point]"
CN(C)c1ccc(C(CNC(=O)COc2ccccc2)N2CCOCC2)cc1 (stereo unspecified),AC50,[2],"7.94 µM [falling, partial curve, poor fit]"
